Laboratory results from patent US20200062817A1.
Results are given in words; binding and its absence hold for the method and conditions named. Binding seen in cells or lysates may run through a third protein. Some entries that bind do so weakly or less than the wild type. Where a sequence is shown, tags or fusion partners need not be part of it.

T1: human IL-27 beta-subunit EBI3 (hEBI3) (human) (UniProt Q14213)
T1 sequence: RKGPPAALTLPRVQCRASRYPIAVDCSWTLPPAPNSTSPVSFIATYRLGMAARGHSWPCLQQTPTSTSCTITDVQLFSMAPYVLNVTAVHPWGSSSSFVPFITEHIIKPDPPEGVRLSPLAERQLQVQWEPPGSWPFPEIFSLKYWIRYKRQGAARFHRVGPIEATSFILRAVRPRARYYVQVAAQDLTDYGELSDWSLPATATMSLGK


Experiments:
[1] = biological target: T1, human IL-27 beta-subunit EBI3 (hEBI3) (human); assay: co-immunoprecipitation
[2] = biological target: T1, human IL-27 beta-subunit EBI3 (hEBI3) (human); assay: co-immunoprecipitation with anti-V5 from medium of 293T cells, immunoblot against EBI3

Row | Binder | binding [1] | binding [2]
1 | mouse IL-27 alpha-subunit (mIL-27α), wild type, with C-terminal (GS)4-linker and V5 tag (ligand, not shown: small tags and cut ends) FPTDPLSLQELRREFTVSLYLARKLLSEVQGYVHSFAESRLPGVNLDLLPLGYHLPNVSLTFQAWHHLSDSERLCFLATTLRPFPAMLGGLGTQGTWTSSEREQLWAMRLDLRDLHRHLRFQVLAAGFKCSKEEEDKEEEEEEEEEEKKLPLGALGGPNQVSSQVSWPQLLYTYQLLHSLELVLSRAVRDLLLLSLPRRPGSAWDSGSGSGSGS | binds | binds
2 | mIL-27α^C158L, with C-terminal (GS)4-linker and V5 tag (ligand, not shown: small tags and cut ends) FPTDPLSLQELRREFTVSLYLARKLLSEVQGYVHSFAESRLPGVNLDLLPLGYHLPNVSLTFQAWHHLSDSERLCFLATTLRPFPAMLGGLGTQGTWTSSEREQLWAMRLDLRDLHRHLRFQVLAAGFKLSKEEEDKEEEEEEEEEEKKLPLGALGGPNQVSSQVSWPQLLYTYQLLHSLELVLSRAVRDLLLLSLPRRPGSAWDSGSGSGSGS |  | binds
